Reference: the supplement of paper PMC4807443
Structures can show the parent of a compound that is named as a salt. The list shows a part of the results. The numbers are fractions of the control, whatever unit the source prints. Most values lie at the level of the controls, where differences are scatter.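 A lentiviral reporter stably expressed in MIN6 mouse insulinoma beta cells uses Pdx1 and Ins1 promoters to drive separate nucleus-targeted fluorescent proteins; automated imaging with Hoechst nuclear stain counted cells. Possible hits were drugs shifting Ins1 promoter signal more than two median absolute deviations from DMSO controls, with Pdx1 activity roughly normal.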

System: MIN6
Test: % Pdx1+ Ins1-low (RFP-only, immature) cells relative to DMSO control (fold of DMSO control); higher = more immature Pdx1+/Ins1-low cells
Conditions: 8.5 µM; 48 h; glucose 5 mM

Structure (SMILES)	% Pdx1+ Ins1-low
COc1c2ccoc2nc2c(OC)c(OCC(O)C(C)(C)O)ccc12 (centres undefined) [Evoxine]	0.529
Nc1nc(=S)c2ncn([C@@H]3O[C@H](CO)[C@@H](O)[C@H]3O)c2[nH]1 [Thioguanosine]	1.11
CC(C)NCC(O)COc1ccc(COCCOC(C)C)cc1 (centres undefined) [Bisoprolol fumarate]	1.42
OC(CCN1CCCCC1)(c1ccccc1)C1CC2C=CC1C2 (centres undefined) [Biperiden hydrochloride]	0.699
CCN(CC)CC#CCOC(=O)C(O)(c1ccccc1)C1CCCCC1 (centres undefined) [Oxybutynin chloride]	1.16
Cc1ncc([N+](=O)[O-])n1CCO [Metronidazole]	0.901
CCN(Cc1ccncc1)C(=O)C(CO)c1ccccc1 (centres undefined) [Tropicamide]	1.14
O=C(NCCNCC(O)COc1ccc(O)cc1)N1CCOCC1 (centres undefined) [Xamoterol hemifumarate]	1.43
CC(C)N1CCN(c2ccc(OCC3COC(Cn4cncn4)(c4ccc(Cl)cc4Cl)O3)cc2)CC1 (centres undefined) [Terconazole]	0.76
COc1ccc2[nH]cc(CCNC(C)=O)c2c1 [Melatonin]	1.67
NC[C@H]1O[C@H](O[C@H]2[C@H](O[C@@H]3O[C@H](CO)[C@@H](O)[C@H]3O)[C@@H](O)[C@H](N)C[C@@H]2N)[C@H](N)[C@@H](O)[C@@H]1O [Ribostamycin sulfate salt]	0.903
COc1ccc(C(=O)NCc2cccnc2)cc1C(=O)NCc1cccnc1 [Picotamide monohydrate]	0.859
O=c1c(O)c(-c2cc(O)c(O)c(O)c2)oc2cc(O)cc(O)c12 [Myricetin]	1
CC(=O)N[C@@H](CC(=O)N[C@@H](CCC(=O)O)C(=O)O)C(=O)O [Spaglumic acid]	0.701
COc1ccc(-c2cc(=O)c3c(O)cc(O)cc3o2)cc1 [Acacetin]	0.81
Cc1ccc(S(=O)(=O)NC(=O)NN2CC3CCCC3C2)cc1 (centres undefined) [Gliclazide]	0.867
COc1nc(C)nc(Cl)c1NC1=NCCN1 [Moxonidine]	1.04
CCn1cc(C(=O)O)c(=O)c2cnc(N3CCNCC3)nc21 [Pipemidic acid]	0.555
COc1cc2nc(N3CCN(C(=O)c4ccco4)CC3)nc(N)c2cc1OC [Prazosin hydrochloride]	1.01
O=C(CCCN1CC=C(n2c(=O)[nH]c3ccccc32)CC1)c1ccc(F)cc1 [Droperidol]	1.15
CCN(CC)CCNC(=O)c1cc(S(C)(=O)=O)ccc1OC [Tiapride hydrochloride]	0.754
CCn1cc(C(=O)O)c(=O)c2ccc(C)nc21 [Nalidixic acid sodium salt hydrate]	1.17
Nc1c(O)cccc1C(=O)CC(N)C(=O)O (racemic) [Kynurenine, 3-hydroxy (R,S)]	1.03
COc1ccc2cc(CCC(C)=O)ccc2c1 [Nabumetone]	0.577
C#CCN(C)Cc1ccccc1 [Pargyline hydrochloride]	0.532

Fetched by structure from the entries so far, three records:
Structure (SMILES)	% Pdx1+ Ins1-low
COc1ccc(-c2cc(=O)c3c(O)cc(O)cc3o2)cc1 [Acacetin]	0.81
O=c1c(O)c(-c2cc(O)c(O)c(O)c2)oc2cc(O)cc(O)c12 [Myricetin]	1
Nc1nc(=S)c2ncn([C@@H]3O[C@H](CO)[C@@H](O)[C@H]3O)c2[nH]1 [Thioguanosine]	1.11

Next part

Structure (SMILES)	% Pdx1+ Ins1-low
OCCN1CCN(CCCN2c3ccccc3Sc3ccc(Cl)cc32)CC1 [Perphenazine]	0.701
OC[C@H]1O[C@@H](Oc2ccc(O)cc2)[C@H](O)[C@@H](O)[C@@H]1O [Arbutin]	1.19
Nc1ccc(S(=O)(=O)c2ccc(N)cc2)cc1 [Dapsone]	0.582
COc1ccc(NS(=O)(=O)c2ccc(N)cc2)nn1 [Sulfamethoxypyridazine]	1.22
Nc1ccc(C(=O)NCC(=O)O)cc1 [Aminohippuric acid]	0.68
Cn1nnnc1SCC1=C(C(=O)O)N2C(=O)[C@@H](NC(=O)[C@H](O)c3ccccc3)[C@H]2SC1 [Cefamandole sodium salt]	0.85
N=C(N)NCC1COC2(CCCCC2)O1 (centres undefined) [Guanadrel sulfate]	1.15
CC1(C)OC(=O)NC1=O [Dimethadione]	0.6
CCCC(=O)Nc1ncnc2c1ncn2[C@@H]1O[C@@H]2COP(=O)(O)O[C@H]2[C@H]1OC(=O)CCC [Bucladesine sodium salt]	0.618
NC(=O)N/N=C/c1ccc([N+](=O)[O-])o1 [Nitrofural]	0.97
CN1CCCCC1CCN1c2ccccc2Sc2ccc([S+](C)[O-])cc21 (centres undefined) [Mesoridazine besylate]	0.518
CO[C@@H]1[C@@H](OC(N)=O)[C@@H](O)[C@H](Oc2ccc3c(O)c(NC(=O)c4ccc(O)c(CC=C(C)C)c4)c(=O)oc3c2C)OC1(C)C [Novobiocin sodium salt]	0.466
CCN1CCN(C(=O)N[C@@H](C(=O)N[C@@H]2C(=O)N3[C@@H]2SC(C)(C)[C@@H]3C(=O)O)c2ccccc2)C(=O)C1=O [Piperacillin sodium salt]	0.737
NNc1nncc2ccccc12 [Hydralazine hydrochloride]	0.732
C[C@H](CCC(=O)O)[C@H]1CC[C@H]2[C@@H]3[C@H](O)C[C@@H]4C[C@H](O)CC[C@]4(C)[C@H]3CC[C@]12C [Chenodiol]	0.741
Nc1cc(C(Cl)=C(Cl)Cl)c(S(N)(=O)=O)cc1S(N)(=O)=O [Clorsulon]	0.785
COc1c2occc2c(OC)c2c(=O)cc(C)oc12 [Khellin]	0.718
O=c1oc2ccccc2c(O)c1Cc1c(O)c2ccccc2oc1=O [Dicumarol]	1.46
CN1CCN(CCCN2c3ccccc3Sc3ccc(Cl)cc32)CC1 [Prochlorperazine dimaleate]	1.24
CNCC(O)c1ccc(OC(=O)C(C)(C)C)c(OC(=O)C(C)(C)C)c1 (centres undefined) [Dipivefrin hydrochloride]	0.848
CCN(CC)CCc1nc(-c2ccccc2)no1 [Oxalamine citrate salt]	0.903
CC(=O)NC1[C@@H](O)OC(CO)[C@@H](O)[C@H]1O[C@H](C)C(=O)O (stereo in doubt) [Muramic acid, N-acetyl]	1.17
CC(C)NC[C@@H](O)COc1cccc2ccccc12 [(R)-Propranolol hydrochloride]	0.967
CC[C@]12CCCN3CCc4c(n(c5ccccc45)[C@](O)(C(=O)OC)C1)[C@@H]32 [Epivincamine]	1.4
CC(NCCC(c1ccccc1)c1ccccc1)c1ccccc1 (centres undefined) [Fendiline hydrochloride]	0.589

Copied from the list:
`CN1CCN(CCCN2c3ccccc3Sc3ccc(Cl)cc32)CC1` [Prochlorperazine dimaleate] – % Pdx1+ Ins1-low: 1.24
`CC(=O)NC1[C@@H](O)OC(CO)[C@@H](O)[C@H]1O[C@H](C)C(=O)O` (stereo in doubt) [Muramic acid, N-acetyl] – % Pdx1+ Ins1-low: 1.17

The list continues.

Structure (SMILES)	% Pdx1+ Ins1-low
CN(C)[C@@H]1C(O)=C(C(=O)NCN2CCCC2)C(=O)[C@@]2(O)C(O)=C3C(=O)c4c(O)cccc4[C@@](C)(O)[C@H]3C[C@@H]12 [Rolitetracycline]	0.767
Cc1c(N(C)CS(=O)(=O)O)c(=O)n(-c2ccccc2)n1C [Dipyrone]	1.05
CC(C)NCC(O)c1ccc2ccccc2c1 (centres undefined) [Pronethalol hydrochloride]	0.602
CN(C)c1nc(N(C)C)nc(N(C)C)n1 [Altretamine]	0.983
Nc1nc2n[nH]nc2c(=O)[nH]1 [Azaguanine-8]	0.961
COc1cc([C@@H]2c3cc4c(cc3[C@@H](O[C@@H]3O[C@@H]5CO[C@@H](C)O[C@H]5[C@H](O)[C@H]3O)[C@H]3COC(=O)[C@H]23)OCO4)cc(OC)c1O [Etoposide]	0.989
CCCNCC(O)COc1ccccc1C(=O)CCc1ccccc1 (centres undefined) [Propafenone hydrochloride]	0.64
C[C@H]1C[C@@H]2[C@H]([C@@H](O)C[C@@]3(C)[C@H]2CC[C@]3(O)C(=O)CO)[C@@]2(C)C=CC(=O)C=C12 [Methylprednisolone, 6-alpha]	1.14
CN1CC[C@]23c4ccccc4N[C@H]1[C@]21CCN(C)[C@H]3Nc2ccccc21 [Calycanthine]	0.987
c1ccc2c3c([nH]c2c1)C1C2CCC(C4CCCNC42)N1CC3 (centres undefined) [Nitrarine dihydrochloride]	1.07
CC[N+]1(C)C2CCC1CC(OC(=O)C1CCC(C(=O)OC3CC4CCC(C3)[N+]4(C)CC)(c3ccccc3)c3ccccc31)C2 (stereo not drawn) [beta- Belladonnine dichloroethylate]	1.16
COc1ccc(C2CNC(=O)C2)cc1OC1CCCC1 (centres undefined) [Rolipram]	0.61
CCOC(=O)Oc1c(OC)cc(C(=O)O[C@@H]2C[C@@H]3CN4CCc5c([nH]c6cc(OC)ccc56)[C@H]4C[C@@H]3[C@H](C(=O)OC)[C@H]2OC)cc1OC [Syrosingopine]	1.15
O=C1OCCN1/N=C/c1ccc([N+](=O)[O-])o1 [Furazolidone]	0.704
O=C1C[C@@H](c2ccc(O)cc2)Oc2cc(O)cc(O)c21 [Naringenine]	1.15
CCC(=O)O[C@]1(C(=O)CCl)[C@@H](C)C[C@H]2[C@@H]3CCC4=CC(=O)C=C[C@]4(C)[C@@]3(F)[C@@H](O)C[C@@]21C [Clobetasol propionate]	1.36
c1ccc([C@H]2CN3CCSC3=N2)cc1 [Levamisole hydrochloride]	1.08
O=S(=O)(O)c1cc(O)ccc1O [Ethamsylate]	0.741
CC1Cc2ccccc2N1NC(=O)c1ccc(Cl)c(S(N)(=O)=O)c1 (centres undefined) [Indapamide]	0.762
Nc1ccc(S(=O)(=O)Nc2ccnn2-c2ccccc2)cc1 [Sulfaphenazole]	1.04
O=C(NCC(O)CO)c1c(I)c(C(=O)NCC(O)CO)c(I)c(N(CCO)C(=O)CO)c1I (centres undefined) [Ioversol]	0.85
CO/N=C(\C(=O)N[C@@H]1C(=O)N2C(C(=O)O)=C(COC(N)=O)CS[C@H]12)c1ccco1 [Cefuroxime sodium salt]	0.614
Cc1cc(CC(=O)O)n(C)c1C(=O)c1ccc(Cl)cc1 [Zomepirac sodium salt]	0.97
O=C1CC2(CCCC2)CC(=O)N1CCCCN1CCN(c2ncccn2)CC1 [Buspirone hydrochloride]	1.38
